Conditions: alisporivir 600 mg BID for 10 days; single 40 mg oral dose of atorvastatin

CC(C)c1c(C(=O)Nc2ccccc2)c(-c2ccccc2)c(-c2ccc(F)cc2)n1CC[C@@H](O)C[C@@H](O)CC(=O)O [atorvastatin, reference compound]
T1/2 alone versus with alisporivir: similar

Source: patent publication US20150133369A1, “PHARMACOKINETIC MODULATION WITH ALISPORIVIR” (priority 2012, published 2015)
